Tested on: PAK4cat
Assay: Isothermal titration calorimetry (Nano-ITC)
Format: binding, human

Substance: integrin β5 cytoplasmic tail: Recombinant His-tagged integrin β5 cytoplasmic tail, residues 743–799 (KLLVTIHDRREFAKFQSERSRARYEMASNPLYRKPISTHTVDFTFNKFNKSYNGTVD; left off: 6xHis, end not stated, kept)
- ΔS (ITC) (PBS pH 7.4, 25 °C, mean of runs): 73.25 ± 2.45 J/molK
- ΔH (ITC) (Supplementary Table 1, run 1): -7.7 kJ/mol
- ΔS (ITC) (Supplementary Table 1, run 1): 75.7 J/molK
- ΔH (ITC) (Supplementary Table 1, run 2): -9.2 kJ/mol
- ΔS (ITC) (Supplementary Table 1, run 2): 70.8 J/molK

— publication PMC9669019, “Molecular basis for integrin adhesion receptor binding to p21-activated kinase 4 (PAK4)” (Communications Biology, 2022)
